# Measurements reported in the supplement of paper PMC8728848.
# The list shows a part of the results.
# B1: GS7807G-bfa-506-18-506 (Bacteroides fragilis) (protein)
# chain: ASCDKFDEINTDPDATTKVTSSLLATGLLLDITSSSASKSFIYDELLAKQMAWGESMEDYQYNVFGRSGFGGYTTLINAQKMVESVSDDNVNAYDGLAHFIKAYKIFYMSMEMGDLPYEEALQGELGLVRPKYNTQKEVMNFILSDLETAYELFSTAKDFDGDPILGGSISKWKKATTAFQLKVLMHLSKKESDADLKVKERFARIVASGSLMESNEDNLQMKYADKANTVYPFHNTNTKHAGYAMLSTMLIDKFKATGDIRMFYYAKPAKAKLNEGVTADSWDAYIGTDPSLPFEQIEKAYATEQYSGFNARYTDYPSGEPVVRLGYAEQNFILAEAAVRGWISGDASAYYKKAIRAHMEFIASNTPDEEVYHHGHPITEEAIAAFLETPAIQLSGEKEEDIEKILTQRYLASFMQHPYDVYYDYRRTGYPVLPINPATNRNTMNDRLPMRWMYPKSESDYNLEHQNEALERQFGGVDDVNKLMWILQ
# How the values were obtained:
# Assay in all cases: glycan array binding signal (z-score within array); higher = stronger binding
# Conditions in all cases: glycan notation: IUPAC condensed, linker removed
# [1] = molecular target: Fuc(a1-2)Gal(b1-4)GlcNAc(b1-3)Gal(b1-4)GlcNAc(b1-3)Gal(b1-4)GlcNAc
# Procedure, shortened: (§1)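 Glycan array data were curated from 3228 arrays in the Consortium for Functional Glycomics database and kept only where the protein sequence was available. Glycan names were converted to IUPAC-condensed notation, and columns mapping to the same glycan were averaged. The binding signal is a within-array Z-score, averaged across arrays of the same protein sequence at different concentrations or buffers and across linkers. Negative Z-scores can be read as non-binding.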
# [2] = molecular target: Fuc(a1-2)Gal(b1-4)GlcNAc(b1-3)GalNAc
# Procedure, shortened: as §1
# [3] = molecular target: Fuc(a1-2)Gal(b1-4)GlcNAc(b1-3)[Fuc(a1-2)Gal(b1-4)GlcNAc(b1-6)]GalNAc
# Procedure, shortened: as §1
# [4] = molecular target: Fuc(a1-2)Gal(b1-4)GlcNAc(b1-3)[Fuc(a1-3)[Gal(b1-4)]GlcNAc(b1-6)]Gal(b1-4)Glc
# Procedure, shortened: as §1
# [5] = molecular target: Fuc(a1-2)Gal(b1-4)GlcNAc(b1-6)GalNAc
# Procedure, shortened: as §1
# [6] = molecular target: Fuc(a1-2)Gal(b1-4)GlcNAc6S
# Procedure, shortened: as §1
# [7] = molecular target: Fuc(a1-2)Gal(b1-4)[Fuc(a1-3)]GlcNAc
# Procedure, shortened: as §1
# [8] = molecular target: Fuc(a1-2)Gal(b1-4)[Fuc(a1-3)]GlcNAc(b1-2)Man(a1-3)[Fuc(a1-2)Gal(b1-4)[Fuc(a1-3)]GlcNAc(b1-2)Man(a1-6)]Man(b1-4)GlcNAc(b1-4)[Fuc(a1-6)]GlcNAc
# Procedure, shortened: as §1
# [9] = molecular target: Fuc(a1-2)Gal(b1-4)[Fuc(a1-3)]GlcNAc(b1-2)[Fuc(a1-2)Gal(b1-4)[Fuc(a1-3)]GlcNAc(b1-4)]Man(a1-3)[Fuc(a1-2)Gal(b1-4)[Fuc(a1-3)]GlcNAc(b1-2)Man(a1-6)]Man(b1-4)GlcNAc(b1-4)GlcNAc
# Procedure, shortened: as §1
# [10] = molecular target: Fuc(a1-2)Gal(b1-4)[Fuc(a1-3)]GlcNAc(b1-3)Gal(b1-4)[Fuc(a1-3)]GlcNAc
# Procedure, shortened: as §1
# [11] = molecular target: Fuc(a1-2)Gal(b1-4)[Fuc(a1-3)]GlcNAc(b1-3)Gal(b1-4)[Fuc(a1-3)]GlcNAc(b1-3)Gal(b1-4)[Fuc(a1-3)]GlcNAc
# Procedure, shortened: as §1
# [12] = molecular target: Fuc(a1-2)Gal(b1-4)[Fuc(a1-3)]GlcNAc(b1-3)GalNAc
# Procedure, shortened: as §1
# [13] = molecular target: Fuc(a1-2)Gal(b1-4)[Fuc(a1-3)]GlcNAc(b1-3)[Neu5Ac(a2-6)Gal(b1-4)GlcNAc(b1-6)]Gal(b1-4)Glc
# Procedure, shortened: as §1
# [14] = molecular target: Fuc(a1-2)Gal3S(b1-4)GlcNAc
# Procedure, shortened: as §1
# [15] = molecular target: Fuc(a1-2)Gal6S(b1-3)GlcNAc
# Procedure, shortened: as §1
# [16] = molecular target: Fuc(a1-2)Gal6S(b1-3)GlcNAc6S
# Procedure, shortened: as §1
# Fuc(a1-2)Gal6S(b1-4)Glc = molecular target: Fuc(a1-2)Gal6S(b1-4)Glc
# Procedure, shortened: as §1
# [17] = molecular target: Fuc(a1-2)Gal6S(b1-4)Glc6S
# Procedure, shortened: as §1
# Fuc(a1-2)[Gal(a1-3)]Gal = molecular target: Fuc(a1-2)[Gal(a1-3)]Gal
# Procedure, shortened: as §1
# [18] = molecular target: Fuc(a1-2)[Gal(a1-3)]Gal(b1-3)GalNAc
# Procedure, shortened: as §1
# [19] = molecular target: Fuc(a1-2)[Gal(a1-3)]Gal(b1-3)GalNAc(b1-3)Gal(a1-4)Gal(b1-4)Glc
# Procedure, shortened: as §1
# [20] = molecular target: Fuc(a1-2)[Gal(a1-3)]Gal(b1-3)GlcNAc
# Procedure, shortened: as §1
# [21] = molecular target: Fuc(a1-2)[Gal(a1-3)]Gal(b1-3)GlcNAc(b1-2)Man(a1-3)[Fuc(a1-2)[Gal(a1-3)]Gal(b1-3)GlcNAc(b1-2)Man(a1-6)]Man(b1-4)GlcNAc(b1-4)GlcNAc
# Procedure, shortened: as §1
# [22] = molecular target: Fuc(a1-2)[Gal(a1-3)]Gal(b1-3)GlcNAc(b1-2)Man(a1-3)[Fuc(a1-2)[Gal(a1-3)]Gal(b1-3)GlcNAc(b1-2)Man(a1-6)]Man(b1-4)GlcNAc(b1-4)[Fuc(a1-6)]GlcNAc
# Procedure, shortened: as §1
# [23] = molecular target: Fuc(a1-2)[Gal(a1-3)]Gal(b1-3)GlcNAc(b1-3)GalNAc
# Procedure, shortened: as §1
# [24] = molecular target: Fuc(a1-2)[Gal(a1-3)]Gal(b1-3)GlcNAc(b1-6)GalNAc
# Procedure, shortened: as §1
# [25] = molecular target: Fuc(a1-2)[Gal(a1-3)]Gal(b1-4)Glc
# Procedure, shortened: as §1
# [26] = molecular target: Fuc(a1-2)[Gal(a1-3)]Gal(b1-4)GlcNAc
# Procedure, shortened: as §1
# [27] = molecular target: Fuc(a1-2)[Gal(a1-3)]Gal(b1-4)GlcNAc(b1-2)Man
# Procedure, shortened: as §1
# [28] = molecular target: Fuc(a1-2)[Gal(a1-3)]Gal(b1-4)GlcNAc(b1-2)Man(a1-3)[Fuc(a1-2)[Gal(a1-3)]Gal(b1-4)GlcNAc(b1-2)Man(a1-6)]Man(b1-4)GlcNAc(b1-4)GlcNAc
# Procedure, shortened: as §1
# [29] = molecular target: Fuc(a1-2)[Gal(a1-3)]Gal(b1-4)GlcNAc(b1-2)Man(a1-3)[Fuc(a1-2)[Gal(a1-3)]Gal(b1-4)GlcNAc(b1-2)Man(a1-6)]Man(b1-4)GlcNAc(b1-4)[Fuc(a1-6)]GlcNAc
# Procedure, shortened: as §1
# [30] = molecular target: Fuc(a1-2)[Gal(a1-3)]Gal(b1-4)GlcNAc(b1-3)GalNAc
# Procedure, shortened: as §1
# [31] = molecular target: Fuc(a1-2)[Gal(a1-3)]Gal(b1-4)GlcNAc(b1-3)[Fuc(a1-2)[Gal(a1-3)]Gal(b1-4)GlcNAc(b1-6)]GalNAc
# Procedure, shortened: as §1
# [32] = molecular target: Fuc(a1-2)[Gal(a1-3)]Gal(b1-4)GlcNAc(b1-6)GalNAc
# Procedure, shortened: as §1
# [33] = molecular target: Fuc(a1-2)[Gal(a1-3)]Gal(b1-4)[Fuc(a1-3)]Glc
# Procedure, shortened: as §1
# [34] = molecular target: Fuc(a1-2)[Gal(a1-3)]Gal(b1-4)[Fuc(a1-3)]GlcNAc
# Procedure, shortened: as §1
# [35] = molecular target: Fuc(a1-2)[Gal(a1-3)]Gal(b1-4)[Fuc(a1-3)]GlcNAc(b1-3)GalNAc
# Procedure, shortened: as §1
# [36] = molecular target: Fuc(a1-2)[Gal(a1-4)]Gal(b1-4)GlcNAc
# Procedure, shortened: as §1
# [37] = molecular target: Fuc(a1-2)[GalNAc(a1-3)]Gal
# Procedure, shortened: as §1
# [38] = molecular target: Fuc(a1-2)[GalNAc(a1-3)]Gal(b1-3)GalNAc(a1-3)[Fuc(a1-2)]Gal(b1-4)GlcNAc
# Procedure, shortened: as §1
# [39] = molecular target: Fuc(a1-2)[GalNAc(a1-3)]Gal(b1-3)GalNAc(b1-3)Gal(a1-4)Gal(b1-4)Glc
# Procedure, shortened: as §1
# [40] = molecular target: Fuc(a1-2)[GalNAc(a1-3)]Gal(b1-3)GlcNAc
# Procedure, shortened: as §1
# [41] = molecular target: Fuc(a1-2)[GalNAc(a1-3)]Gal(b1-3)GlcNAc(b1-2)Man(a1-3)[Fuc(a1-2)[GalNAc(a1-3)]Gal(b1-3)GlcNAc(b1-2)Man(a1-6)]Man(b1-4)GlcNAc(b1-4)GlcNAc
# Procedure, shortened: as §1
# [42] = molecular target: Fuc(a1-2)[GalNAc(a1-3)]Gal(b1-3)GlcNAc(b1-2)Man(a1-3)[Fuc(a1-2)[GalNAc(a1-3)]Gal(b1-3)GlcNAc(b1-2)Man(a1-6)]Man(b1-4)GlcNAc(b1-4)[Fuc(a1-6)]GlcNAc
# Procedure, shortened: as §1
# [43] = molecular target: Fuc(a1-2)[GalNAc(a1-3)]Gal(b1-3)GlcNAc(b1-3)GalNAc
# Procedure, shortened: as §1
binder,measurement,setting,value
B1,glycan array binding signal (z-score),[1],-0.968
same,glycan array binding signal (z-score),[2],0.625
same,glycan array binding signal (z-score),[3],1.32
same,glycan array binding signal (z-score),[4],-0.145
same,glycan array binding signal (z-score),[5],1.75
same,glycan array binding signal (z-score),[6],-0.487
same,glycan array binding signal (z-score),[7],-0.916
same,glycan array binding signal (z-score),[8],0.243
same,glycan array binding signal (z-score),[9],-0.695
same,glycan array binding signal (z-score),[10],-0.553
same,glycan array binding signal (z-score),[11],-0.767
same,glycan array binding signal (z-score),[12],0.907
same,glycan array binding signal (z-score),[13],-0.781
same,glycan array binding signal (z-score),[14],-0.982
same,glycan array binding signal (z-score),[15],-0.497
same,glycan array binding signal (z-score),[16],-0.202
same,glycan array binding signal (z-score),Fuc(a1-2)Gal6S(b1-4)Glc,-0.128
same,glycan array binding signal (z-score),[17],0.656
same,glycan array binding signal (z-score),Fuc(a1-2)[Gal(a1-3)]Gal,0.293
same,glycan array binding signal (z-score),[18],-0.509
same,glycan array binding signal (z-score),[19],-0.536
same,glycan array binding signal (z-score),[20],-0.967
same,glycan array binding signal (z-score),[21],-0.106
same,glycan array binding signal (z-score),[22],1.27
same,glycan array binding signal (z-score),[23],-0.998
same,glycan array binding signal (z-score),[24],0.558
same,glycan array binding signal (z-score),[25],-0.745
same,glycan array binding signal (z-score),[26],-0.733
same,glycan array binding signal (z-score),[27],-0.104
same,glycan array binding signal (z-score),[28],3.93
same,glycan array binding signal (z-score),[29],-0.543
same,glycan array binding signal (z-score),[30],-0.69
same,glycan array binding signal (z-score),[31],0.293
same,glycan array binding signal (z-score),[32],-0.343
same,glycan array binding signal (z-score),[33],-0.909
same,glycan array binding signal (z-score),[34],0.197
same,glycan array binding signal (z-score),[35],0.639
same,glycan array binding signal (z-score),[36],-0.848
same,glycan array binding signal (z-score),[37],0.227
same,glycan array binding signal (z-score),[38],-0.151
same,glycan array binding signal (z-score),[39],-0.596
same,glycan array binding signal (z-score),[40],-0.659
same,glycan array binding signal (z-score),[41],0.114
same,glycan array binding signal (z-score),[42],-0.493
same,glycan array binding signal (z-score),[43],0.453

# Random excerpt: 3 records from the list
binder,measurement,setting,value
B1,glycan array binding signal (z-score),[37],0.227
same,glycan array binding signal (z-score),[10],-0.553
same,glycan array binding signal (z-score),[36],-0.848
